The other results are listed elsewhere or left out.
What was measured:
Assay in all cases: log2 fold change, soluble protein after heating vs DMSO (PISA); higher = thermal stabilisation; K562 lysate, 10 uM; active = over 0.2 and 3.5 SD of the protein, either way, in both replicates (recomputed)
[1] = compound: C1=CC=C(C=C1)[C@H](COC2=CC3=C(C=C2)NC(=O)N3)NC(=O)C4=CC=CN(C4=O)CC5=CC(=C(C=C5)F)F
Method in brief: (§1)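 Thermal stability, expressed as log-two fold change relative to solvent controls, is given from duplicates. Crude K562 extract in PBS pH 7.4 with 1 mM MgCl2, at 1 mg/mL protein, was treated with 10 μM compound for 30 min and heated in aliquots for 3 min across 48°C-58°C. After pooling, adjustment to 0.5% NP-40 at 4°C and centrifugation at 21,000xg for 90 min, supernatant protein was measured by TMTpro 16plex LC-MS/MS with channel sums equalised.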

Amino acid sequences for entries named in this document (tags omitted). A change or cut given only in a name is not applied to a line headed by its entry.
UniProt Q86XL3: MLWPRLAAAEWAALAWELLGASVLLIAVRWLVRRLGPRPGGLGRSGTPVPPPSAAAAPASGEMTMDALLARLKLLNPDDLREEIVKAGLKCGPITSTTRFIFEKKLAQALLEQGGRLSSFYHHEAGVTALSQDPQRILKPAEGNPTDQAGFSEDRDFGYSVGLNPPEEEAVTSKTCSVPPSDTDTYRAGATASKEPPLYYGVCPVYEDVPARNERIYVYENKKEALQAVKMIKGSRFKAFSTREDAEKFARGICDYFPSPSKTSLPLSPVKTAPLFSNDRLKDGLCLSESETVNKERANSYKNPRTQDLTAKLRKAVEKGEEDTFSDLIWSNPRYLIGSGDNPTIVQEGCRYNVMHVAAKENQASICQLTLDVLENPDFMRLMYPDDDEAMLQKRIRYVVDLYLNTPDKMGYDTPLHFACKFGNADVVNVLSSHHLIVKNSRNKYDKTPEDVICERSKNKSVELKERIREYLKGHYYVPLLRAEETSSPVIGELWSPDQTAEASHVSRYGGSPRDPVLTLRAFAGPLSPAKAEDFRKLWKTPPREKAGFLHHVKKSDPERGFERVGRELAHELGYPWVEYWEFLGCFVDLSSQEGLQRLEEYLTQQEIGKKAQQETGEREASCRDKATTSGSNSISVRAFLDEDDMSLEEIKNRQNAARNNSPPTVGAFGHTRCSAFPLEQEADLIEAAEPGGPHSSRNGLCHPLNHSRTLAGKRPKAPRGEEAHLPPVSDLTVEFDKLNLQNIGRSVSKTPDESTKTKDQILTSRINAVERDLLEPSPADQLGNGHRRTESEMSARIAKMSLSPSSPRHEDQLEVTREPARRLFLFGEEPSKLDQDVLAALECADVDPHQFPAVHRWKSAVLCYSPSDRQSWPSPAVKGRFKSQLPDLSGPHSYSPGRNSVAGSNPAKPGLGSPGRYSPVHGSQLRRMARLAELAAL
UniProt Q6AI12: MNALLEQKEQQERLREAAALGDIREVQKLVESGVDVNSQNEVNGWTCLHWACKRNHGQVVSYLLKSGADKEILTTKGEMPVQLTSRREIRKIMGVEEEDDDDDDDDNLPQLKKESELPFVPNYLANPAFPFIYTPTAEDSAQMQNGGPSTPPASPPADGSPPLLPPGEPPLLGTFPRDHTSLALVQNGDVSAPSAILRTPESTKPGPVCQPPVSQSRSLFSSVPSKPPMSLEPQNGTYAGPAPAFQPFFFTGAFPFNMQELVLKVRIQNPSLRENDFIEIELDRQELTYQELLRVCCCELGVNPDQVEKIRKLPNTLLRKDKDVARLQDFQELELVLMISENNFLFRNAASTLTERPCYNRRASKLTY
UniProt P39687: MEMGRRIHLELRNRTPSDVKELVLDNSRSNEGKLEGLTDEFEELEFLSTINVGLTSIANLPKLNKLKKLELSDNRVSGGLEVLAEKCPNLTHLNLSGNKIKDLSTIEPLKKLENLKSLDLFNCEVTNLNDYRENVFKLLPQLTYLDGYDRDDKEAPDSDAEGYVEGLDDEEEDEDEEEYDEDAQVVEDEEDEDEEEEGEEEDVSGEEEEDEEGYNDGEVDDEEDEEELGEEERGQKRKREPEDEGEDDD
UniProt Q9BTT0: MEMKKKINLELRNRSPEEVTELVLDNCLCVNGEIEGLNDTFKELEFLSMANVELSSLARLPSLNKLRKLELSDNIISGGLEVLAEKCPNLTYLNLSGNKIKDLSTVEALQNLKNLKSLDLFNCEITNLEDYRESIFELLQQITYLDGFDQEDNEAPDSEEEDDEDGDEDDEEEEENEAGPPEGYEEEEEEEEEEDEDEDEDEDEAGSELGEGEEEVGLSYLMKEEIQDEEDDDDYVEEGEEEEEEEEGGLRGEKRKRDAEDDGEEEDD
UniProt P30038: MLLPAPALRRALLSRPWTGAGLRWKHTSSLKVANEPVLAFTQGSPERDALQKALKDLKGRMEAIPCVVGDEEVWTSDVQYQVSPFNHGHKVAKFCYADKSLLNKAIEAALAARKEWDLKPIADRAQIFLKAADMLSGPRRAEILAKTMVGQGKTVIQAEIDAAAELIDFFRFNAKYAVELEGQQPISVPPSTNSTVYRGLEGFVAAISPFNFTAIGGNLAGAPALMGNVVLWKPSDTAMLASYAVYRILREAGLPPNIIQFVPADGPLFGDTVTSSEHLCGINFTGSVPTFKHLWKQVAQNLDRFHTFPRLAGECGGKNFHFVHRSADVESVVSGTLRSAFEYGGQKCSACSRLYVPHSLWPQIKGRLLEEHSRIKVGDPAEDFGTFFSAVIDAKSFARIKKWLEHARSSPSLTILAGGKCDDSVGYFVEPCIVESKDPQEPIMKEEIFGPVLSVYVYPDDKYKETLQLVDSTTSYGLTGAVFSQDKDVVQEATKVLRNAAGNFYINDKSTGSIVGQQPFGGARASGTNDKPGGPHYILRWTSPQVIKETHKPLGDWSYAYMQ
UniProt Q8IWZ3: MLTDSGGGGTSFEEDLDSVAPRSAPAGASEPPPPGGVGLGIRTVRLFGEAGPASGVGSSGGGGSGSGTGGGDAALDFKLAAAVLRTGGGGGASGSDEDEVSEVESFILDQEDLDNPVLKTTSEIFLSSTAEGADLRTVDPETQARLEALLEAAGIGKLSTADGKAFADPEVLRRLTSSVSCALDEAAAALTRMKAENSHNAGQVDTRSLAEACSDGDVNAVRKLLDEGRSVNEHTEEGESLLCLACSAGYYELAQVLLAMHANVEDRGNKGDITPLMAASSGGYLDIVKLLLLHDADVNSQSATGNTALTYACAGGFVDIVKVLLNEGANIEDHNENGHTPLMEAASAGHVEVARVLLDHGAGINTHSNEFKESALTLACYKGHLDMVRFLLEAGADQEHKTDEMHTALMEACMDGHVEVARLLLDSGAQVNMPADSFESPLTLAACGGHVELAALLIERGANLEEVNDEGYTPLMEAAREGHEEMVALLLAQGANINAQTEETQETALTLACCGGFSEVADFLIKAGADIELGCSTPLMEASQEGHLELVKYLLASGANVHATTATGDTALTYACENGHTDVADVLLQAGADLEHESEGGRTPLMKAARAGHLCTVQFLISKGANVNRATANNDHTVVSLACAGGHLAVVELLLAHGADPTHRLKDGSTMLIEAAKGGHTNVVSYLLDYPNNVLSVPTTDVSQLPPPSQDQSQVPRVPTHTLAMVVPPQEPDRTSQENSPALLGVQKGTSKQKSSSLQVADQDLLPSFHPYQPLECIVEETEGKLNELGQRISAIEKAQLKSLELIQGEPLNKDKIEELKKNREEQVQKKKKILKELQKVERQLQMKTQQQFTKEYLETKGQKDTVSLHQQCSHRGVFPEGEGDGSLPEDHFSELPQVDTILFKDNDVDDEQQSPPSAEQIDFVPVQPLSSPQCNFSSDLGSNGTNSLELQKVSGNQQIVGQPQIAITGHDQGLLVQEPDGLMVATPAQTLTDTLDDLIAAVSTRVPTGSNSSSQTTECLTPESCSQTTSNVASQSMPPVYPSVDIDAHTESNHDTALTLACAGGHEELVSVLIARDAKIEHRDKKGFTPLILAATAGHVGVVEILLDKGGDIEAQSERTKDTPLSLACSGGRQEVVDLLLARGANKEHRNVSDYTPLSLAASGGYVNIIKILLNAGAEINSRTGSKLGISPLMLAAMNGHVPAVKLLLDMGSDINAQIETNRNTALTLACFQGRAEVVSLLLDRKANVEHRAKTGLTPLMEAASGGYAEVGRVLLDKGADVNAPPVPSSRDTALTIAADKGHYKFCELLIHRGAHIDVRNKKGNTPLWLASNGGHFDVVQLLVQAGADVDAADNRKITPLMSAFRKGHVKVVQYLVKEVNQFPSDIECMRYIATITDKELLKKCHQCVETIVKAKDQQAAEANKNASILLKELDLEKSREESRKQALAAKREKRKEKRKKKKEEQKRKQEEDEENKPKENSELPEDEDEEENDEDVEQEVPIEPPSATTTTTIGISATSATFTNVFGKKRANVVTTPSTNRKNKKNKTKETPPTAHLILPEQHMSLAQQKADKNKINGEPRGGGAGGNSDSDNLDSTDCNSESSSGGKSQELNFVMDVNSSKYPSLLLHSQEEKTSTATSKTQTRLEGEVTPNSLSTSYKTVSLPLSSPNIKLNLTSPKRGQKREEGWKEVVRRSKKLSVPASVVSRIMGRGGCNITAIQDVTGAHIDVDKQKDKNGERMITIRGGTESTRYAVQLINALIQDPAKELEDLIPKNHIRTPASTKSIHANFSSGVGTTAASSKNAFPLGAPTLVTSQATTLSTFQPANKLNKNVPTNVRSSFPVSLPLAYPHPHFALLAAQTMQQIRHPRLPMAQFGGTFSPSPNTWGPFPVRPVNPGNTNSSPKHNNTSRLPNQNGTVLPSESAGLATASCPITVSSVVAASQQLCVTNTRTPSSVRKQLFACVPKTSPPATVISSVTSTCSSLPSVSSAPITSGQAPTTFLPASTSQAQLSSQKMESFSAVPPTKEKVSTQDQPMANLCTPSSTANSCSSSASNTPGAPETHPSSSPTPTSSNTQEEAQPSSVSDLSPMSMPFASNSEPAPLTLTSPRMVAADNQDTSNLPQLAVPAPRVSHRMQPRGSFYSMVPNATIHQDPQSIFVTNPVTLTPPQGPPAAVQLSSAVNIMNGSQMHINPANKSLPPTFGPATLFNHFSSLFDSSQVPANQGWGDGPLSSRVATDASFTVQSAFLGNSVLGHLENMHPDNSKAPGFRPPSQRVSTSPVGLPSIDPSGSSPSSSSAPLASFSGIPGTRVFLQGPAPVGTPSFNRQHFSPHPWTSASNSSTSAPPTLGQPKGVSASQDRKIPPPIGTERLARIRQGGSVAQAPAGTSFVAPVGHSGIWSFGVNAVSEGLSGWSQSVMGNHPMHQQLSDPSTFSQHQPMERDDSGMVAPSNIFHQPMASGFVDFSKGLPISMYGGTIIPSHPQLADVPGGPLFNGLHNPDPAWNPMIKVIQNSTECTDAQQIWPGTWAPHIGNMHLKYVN
UniProt P12429: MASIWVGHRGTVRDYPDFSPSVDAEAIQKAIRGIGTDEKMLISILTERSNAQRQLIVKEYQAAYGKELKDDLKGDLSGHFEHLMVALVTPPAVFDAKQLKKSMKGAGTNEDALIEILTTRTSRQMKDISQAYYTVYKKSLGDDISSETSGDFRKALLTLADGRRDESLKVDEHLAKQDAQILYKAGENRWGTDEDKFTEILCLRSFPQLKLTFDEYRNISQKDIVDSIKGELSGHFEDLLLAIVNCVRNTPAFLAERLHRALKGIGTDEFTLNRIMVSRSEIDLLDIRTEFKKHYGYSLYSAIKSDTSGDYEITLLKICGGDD
UniProt Q2TAA5: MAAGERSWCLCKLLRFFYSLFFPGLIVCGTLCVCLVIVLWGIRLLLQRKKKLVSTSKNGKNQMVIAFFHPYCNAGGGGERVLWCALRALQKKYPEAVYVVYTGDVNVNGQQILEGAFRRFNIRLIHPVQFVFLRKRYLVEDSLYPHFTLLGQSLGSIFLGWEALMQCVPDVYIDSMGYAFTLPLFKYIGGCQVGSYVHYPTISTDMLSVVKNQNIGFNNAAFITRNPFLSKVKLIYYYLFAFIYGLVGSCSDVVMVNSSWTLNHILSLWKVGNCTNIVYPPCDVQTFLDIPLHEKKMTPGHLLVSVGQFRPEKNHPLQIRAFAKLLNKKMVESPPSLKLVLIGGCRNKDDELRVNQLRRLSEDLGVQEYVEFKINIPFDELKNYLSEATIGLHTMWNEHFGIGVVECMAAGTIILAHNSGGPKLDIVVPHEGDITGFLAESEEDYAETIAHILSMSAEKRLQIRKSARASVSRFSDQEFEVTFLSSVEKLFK
UniProt Q9UJX6, whole entry, looked up: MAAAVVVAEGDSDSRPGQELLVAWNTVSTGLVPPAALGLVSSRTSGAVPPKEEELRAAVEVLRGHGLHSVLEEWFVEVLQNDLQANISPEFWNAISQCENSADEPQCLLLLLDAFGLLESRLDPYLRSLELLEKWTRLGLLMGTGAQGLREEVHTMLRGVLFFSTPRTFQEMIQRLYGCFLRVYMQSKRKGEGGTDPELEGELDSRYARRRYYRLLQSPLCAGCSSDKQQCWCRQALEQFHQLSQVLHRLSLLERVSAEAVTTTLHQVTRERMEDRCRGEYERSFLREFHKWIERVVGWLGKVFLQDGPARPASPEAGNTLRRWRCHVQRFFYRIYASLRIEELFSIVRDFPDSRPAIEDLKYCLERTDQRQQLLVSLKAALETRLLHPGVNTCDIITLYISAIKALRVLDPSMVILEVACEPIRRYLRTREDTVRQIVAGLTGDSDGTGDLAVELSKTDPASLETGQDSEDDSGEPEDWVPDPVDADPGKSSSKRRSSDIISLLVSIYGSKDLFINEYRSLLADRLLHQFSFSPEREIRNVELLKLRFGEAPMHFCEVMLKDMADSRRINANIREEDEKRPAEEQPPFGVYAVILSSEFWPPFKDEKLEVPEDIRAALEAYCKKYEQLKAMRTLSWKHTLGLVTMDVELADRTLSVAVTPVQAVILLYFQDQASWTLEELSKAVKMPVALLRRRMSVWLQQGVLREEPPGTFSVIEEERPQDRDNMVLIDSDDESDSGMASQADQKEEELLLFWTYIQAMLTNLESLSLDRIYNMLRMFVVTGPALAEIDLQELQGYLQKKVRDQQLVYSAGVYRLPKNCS

[2] = compound: CC1=C(SC2=C1C(=N[C@H](C3=NN=C(N32)C)CC(=O)N)C4=CC=C(C=C4)Cl)C
Method in brief: as §1

[3] = compound: CC1=C2C(=CC=C1)N=C(N(C2=O)C3=CC=CC=C3C)CN4C=NC5=C(N=CN=C54)N
Method in brief: as §1

[4] = compound: Cc1sc2c(c1C)C(c1ccc(Cl)cc1)=N[C@@H](CC(=O)OC(C)(C)C)c1nnc(C)n1-2
Method in brief: as §1

[5] = compound: c1ccc([C@@H]2C[C@H]2NC2CCNCC2)cc1
Method in brief: as §1

Measured: log2 fold change

AMMECR1 (UniProt Q9Y4X0)
inactive: [1] -0.014 | [2] 0.019 | [3] 0.064 | [4] -0.007 | [5] 0.036

ALDH2 (UniProt P05091)
inactive: [1] 0.029 | [2] -0.028 | [3] -0.022 | [4] -0.018 | [5] 0.01

ANKLE2 (UniProt Q86XL3)
inactive: [1] -0.015 | [2] 0.017 | [3] -0.066 | [4] 0.042 | [5] 0.045

AP1G1 isoform 2 (UniProt O43747)
inactive: [1] -0.001 | [2] 0.007 | [3] 0.008 | [4] 0.001 | [5] -0.036

AP2S1 (UniProt P53680)
inactive: [1] -0.013 | [2] 0.017 | [3] 0.026 | [4] 0.022 | [5] 0.026

AP2A2 isoform 2 (UniProt O94973)
inactive: [1] -0.016 | [2] 0.007 | [3] 0.016 | [4] 0.023 | [5] -0.013

ANKMY2 (UniProt Q8IV38)
inactive: [1] -0.007 | [2] 0.009 | [3] 0 | [4] 0.008 | [5] 0.077

ANKRD10 (UniProt Q9NXR5)
inactive: [1] -0.131 | [2] -0.027 | [3] 0.025 | [4] 0.06 | [5] -0.019

ANKRD40 (UniProt Q6AI12)
inactive: [1] 0.133 | [2] 0.072 | [3] 0.536 | [4] -0.156 | [5] 0.053

ALDH1A1 (UniProt P00352)
inactive: [1] -0.032 | [2] 0.006 | [3] -0.028 | [4] -0.011 | [5] 0.045

ALG12 (UniProt Q9BV10)
inactive: [1] 0.066 | [2] -0.22 | [3] 0.093 | [4] -0.064 | [5] -0.042

AMPD2 (UniProt Q01433)
inactive: [1] 0.013 | [2] 0.011 | [3] 0.018 | [4] -0.007 | [5] -0.013

ALKBH3 (UniProt Q96Q83)
inactive: [1] 0.007 | [2] -0.031 | [3] 0.021 | [4] 0.013 | [5] -0.014

ANP32A (UniProt P39687)
inactive: [1] 0.007 | [2] 0.02 | [3] 0 | [4] 0.07 | [5] -0.033

ALKBH8 isoform 4 (UniProt Q96BT7)
inactive: [1] -0.024 | [2] 0 | [3] 0.025 | [4] 0.071 | [5] -0.013

ALKBH2 (UniProt Q6NS38)
inactive: [1] 0.105 | [2] 0.026 | [3] 0 | [4] -0.026 | [5] -0.068

ALDH16A1 (UniProt Q8IZ83)
inactive: [1] 0.015 | [2] -0.029 | [3] 0.007 | [4] 0.018 | [5] -0.072

ANKRD52 (UniProt Q8NB46)
inactive: [1] -0.004 | [2] -0.036 | [3] 0.056 | [4] 0.055 | [5] 0.004

ANKRD49 (UniProt Q8WVL7)
inactive: [1] -0.019 | [2] -0.012 | [3] -0.046 | [4] -0.06 | [5] -0.044

AP4B1 (UniProt Q9Y6B7)
inactive: [1] 0.02 | [2] 0.063 | [3] -0.025 | [4] 0.093 | [5] 0.03

ANXA2 isoform 2 (UniProt P07355)
inactive: [1] 0 | [2] -0.005 | [3] -0.019 | [4] 0.024 | [5] 0.02

ALDH1B1 (UniProt P30837)
inactive: [1] 0.143 | [2] -0.021 | [3] 0.006 | [4] 0.049 | [5] 0.019

AP3D1 isoform 5 (UniProt O14617)
inactive: [1] 0.042 | [2] -0.027 | [3] 0.003 | [4] 0.025 | [5] -0.028

ANKRD28 (UniProt O15084)
inactive: [1] 0.009 | [2] -0.018 | [3] 0.01 | [4] -0.003 | [5] -0.027

ANKZF1 (UniProt Q9H8Y5)
inactive: [1] 0.101 | [2] -0.026 | [3] 0.015 | [4] 0.017 | [5] 0.009

ANXA6 (UniProt P08133)
inactive: [1] -0.03 | [2] 0.02 | [3] 0.013 | [4] 0.02 | [5] -0.03

ANK3 (UniProt Q12955)
inactive: [1] -0.012 | [2] -0.007 | [3] -0.011 | [4] 0.031 | [5] -0.01

ANKRD27 (UniProt Q96NW4)
inactive: [1] -0.025 | [2] 0.022 | [3] -0.011 | [4] 0.042 | [5] -0.002

ALDH9A1 isoform 3 (UniProt P49189)
inactive: [1] 0.028 | [2] -0.014 | [3] -0.015 | [4] 0.017 | [5] 0.056

AP2M1 (UniProt Q96CW1)
inactive: [1] -0.004 | [2] -0.009 | [3] 0 | [4] -0.006 | [5] -0.011

ANKRD31 (UniProt Q8N7Z5)
inactive: [1] -0.047 | [2] 0.066 | [4] -0.293

ANP32E isoform 3 (UniProt Q9BTT0)
inactive: [1] 0.003 | [2] 0.09 | [3] 0.015 | [5] -0.39

ALG2 (UniProt Q9H553)
inactive: [1] 0.051 | [2] 0.093 | [3] 0.089 | [4] -0.105 | [5] 0.086

ANAPC4 isoform 3 (UniProt Q9UJX5)
inactive: [1] 0.039 | [2] 0.007 | [3] 0.015 | [4] -0.026 | [5] -0.036

ALDOA (UniProt H3BPS8)
inactive: [1] -0.109 | [2] 0.028 | [3] 0.071 | [5] -0.05

AP1S3 isoform 4 (UniProt Q96PC3)
inactive: [1] 0.118 | [2] -0.043 | [4] -0.054 | [5] -0.044

AP1G2 (UniProt O75843)
inactive: [1] 0.082 | [2] -0.09 | [3] 0.016 | [4] 0.028 | [5] -0.099

ANTXR2 isoform 4 (UniProt P58335)
inactive: [1] 0.042 | [2] 0.04 | [3] -0.014 | [4] -0.017 | [5] -0.064

ALDH4A1 (UniProt P30038)
inactive: [1] 0.011 | [2] -0.052 | [3] 0.107 | [4] -0.039 | [5] 0.064

ANAPC11 (UniProt Q9NYG5)
inactive: [1] 0 | [2] -0.063 | [4] -0.005 | [5] 0.006

AP2A1 (UniProt O95782)
inactive: [1] -0.028 | [2] 0.036 | [3] 0.022 | [4] 0.024 | [5] -0.016

ANXA7 (UniProt P20073)
inactive: [1] 0.017 | [2] -0.013 | [3] 0.007 | [4] 0.012 | [5] -0.017

ALDOC (UniProt P09972)
inactive: [1] 0.063 | [2] -0.012 | [3] -0.021 | [4] 0.015 | [5] -0.031

ANKHD1 isoform 2 (UniProt Q8IWZ3)
inactive: [1] -0.071 | [2] -0.038 | [4] -0.031 | [5] 0.032

ALG5 (UniProt Q9Y673)
inactive: [1] 0.066 | [2] 0.03 | [3] 0.043 | [4] -0.02 | [5] -0.008

ALG13 (UniProt Q9NP73)
inactive: [1] -0.015 | [2] -0.018 | [3] 0.09 | [4] 0.037 | [5] -0.087

AP1B1 (UniProt Q10567)
inactive: [1] 0.005 | [2] 0.042 | [3] -0.014 | [4] 0.041 | [5] 0.01

ANKRD30B (UniProt Q9BXX2)
inactive: [1] -0.098 | [2] 0.112 | [3] 0.042 | [4] -0.125 | [5] -0.407

14 successive records out of the list so far, quoted:
ANKRD31 (UniProt Q8N7Z5)
inactive: [1] -0.047 | [2] 0.066 | [4] -0.293

ANP32E isoform 3 (UniProt Q9BTT0)
inactive: [1] 0.003 | [2] 0.09 | [3] 0.015 | [5] -0.39

ALG2 (UniProt Q9H553)
inactive: [1] 0.051 | [2] 0.093 | [3] 0.089 | [4] -0.105 | [5] 0.086

ANAPC4 isoform 3 (UniProt Q9UJX5)
inactive: [1] 0.039 | [2] 0.007 | [3] 0.015 | [4] -0.026 | [5] -0.036

ALDOA (UniProt H3BPS8)
inactive: [1] -0.109 | [2] 0.028 | [3] 0.071 | [5] -0.05

AP1S3 isoform 4 (UniProt Q96PC3)
inactive: [1] 0.118 | [2] -0.043 | [4] -0.054 | [5] -0.044

AP1G2 (UniProt O75843)
inactive: [1] 0.082 | [2] -0.09 | [3] 0.016 | [4] 0.028 | [5] -0.099

ANTXR2 isoform 4 (UniProt P58335)
inactive: [1] 0.042 | [2] 0.04 | [3] -0.014 | [4] -0.017 | [5] -0.064

ALDH4A1 (UniProt P30038)
inactive: [1] 0.011 | [2] -0.052 | [3] 0.107 | [4] -0.039 | [5] 0.064

ANAPC11 (UniProt Q9NYG5)
inactive: [1] 0 | [2] -0.063 | [4] -0.005 | [5] 0.006

AP2A1 (UniProt O95782)
inactive: [1] -0.028 | [2] 0.036 | [3] 0.022 | [4] 0.024 | [5] -0.016

ANXA7 (UniProt P20073)
inactive: [1] 0.017 | [2] -0.013 | [3] 0.007 | [4] 0.012 | [5] -0.017

ALDOC (UniProt P09972)
inactive: [1] 0.063 | [2] -0.012 | [3] -0.021 | [4] 0.015 | [5] -0.031

ANKHD1 isoform 2 (UniProt Q8IWZ3)
inactive: [1] -0.071 | [2] -0.038 | [4] -0.031 | [5] 0.032

(further entries)

ANXA3 (UniProt P12429)
inactive: [1] 0.018 | [2] -0.003 | [3] 0.036 | [4] 0.003 | [5] 0.006

ANKHD1 isoform 6 (UniProt Q8IWZ3)
inactive: [1] -0.048 | [2] -0.006 | [3] 0.019 | [4] 0.023 | [5] -0.097

ALG11 (UniProt Q2TAA5)
inactive: [1] -0.095 | [2] 0.001 | [4] 0.085 | [5] -0.002

ANAPC2 (UniProt Q9UJX6)
inactive: [1] 0.009 | [2] -0.011 | [3] 0.026 | [4] -0.03 | [5] 0.004

ALG8 (UniProt Q9BVK2)
inactive: [1] 0.034 | [2] 0.001 | [3] 0.059 | [4] -0.013 | [5] -0.008

Source: the supplement of paper PMC10849652
